Test results reported in patent US20220251188A1.
No constants are given. Whether binding was seen depends on the method and setting. Some binding calls cover weakened binding; strength is not graded here.

Legend:
[1] = molecular target: T1, Biotinylated LAG-3 (Sino biological, Catalog No.: 16498-HNAH-B) (UniProt P18627); assay: direct ELISA after 6 freezing/thawing cycles
T1 sequence (biotinylated (site not stated), looked up): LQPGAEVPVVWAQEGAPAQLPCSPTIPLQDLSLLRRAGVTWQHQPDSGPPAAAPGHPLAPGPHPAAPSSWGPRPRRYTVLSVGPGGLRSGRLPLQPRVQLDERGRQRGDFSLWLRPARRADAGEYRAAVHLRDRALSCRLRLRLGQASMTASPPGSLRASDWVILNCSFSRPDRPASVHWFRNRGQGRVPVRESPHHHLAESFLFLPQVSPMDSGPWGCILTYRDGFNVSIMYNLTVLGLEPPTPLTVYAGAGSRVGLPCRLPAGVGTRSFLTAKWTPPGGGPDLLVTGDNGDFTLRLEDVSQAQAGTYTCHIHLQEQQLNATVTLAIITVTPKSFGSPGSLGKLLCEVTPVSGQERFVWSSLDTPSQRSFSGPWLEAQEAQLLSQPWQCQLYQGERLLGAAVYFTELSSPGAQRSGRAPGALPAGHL

[2] = molecular target: T1, Biotinylated LAG-3 (Sino biological, Catalog No.: 16498-HNAH-B); assay: direct ELISA after shaking at 650 rpm for 5 days
[3] = molecular target: T1, Biotinylated LAG-3 (Sino biological, Catalog No.: 16498-HNAH-B); assay: direct ELISA after shaking at 650 rpm for 3 days
[4] = molecular target: T1, Biotinylated LAG-3 (Sino biological, Catalog No.: 16498-HNAH-B); assay: direct ELISA after illumination at 600 Lux for 5 days
[5] = molecular target: T1, Biotinylated LAG-3 (Sino biological, Catalog No.: 16498-HNAH-B); assay: direct ELISA after standing at 40 C for 1 month (formulas 8, 9 and 10)

binding [1]: binds
binding [2]: binds
binding [3]: binds
binding [4]: binds
binding [5]: binds
B1: anti-LAG-3 monoclonal antibody ADI-31853 (antibody, human IgG4 S228P, kappa, F234A L235A, V domains shown)
VH: QLQLQESGPGLVKPSETLSLTCTVSGGSIYSESYYWGWIRQPPGKGLEWIGSIVYSGYTYYNPSLKSRVTISVDTSKNQFSLKLSSVTAADTAVYYCARVRTWDAAFDIWGQGTMVTVSS
VL: DIQMTQSPSSLSASVGDRVTITCQASQDISNYLNWYQQKPGKAPKLLIYDASNLETGVPSRFSGSGSGTDFTFTISSLQPEDIATYYCQQVLELPPWTFGGGTKVEIKR
